Reference: PubChem BioAssay AID1487 (National Center for Advancing Translational Sciences (NCATS), 2009)
Several values for one entry are separate records, joined by “and”; a condition that tells them apart may be missing. Equal entries are not always repeated. This is one part of the list. Further columns of the screen follow, without active or inactive calls. Most of these compounds were active or inconclusive in the main read-out, so they are no random draw. The note in brackets gives the kind of curve behind each potency; many fits are weak.

Assay: qHTS Assay for Modulators of Lamin A Splicing
Details: HeLa LMNA splicing GFP/RFP minigene ratio, 48 h
Outline: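 Read-out is the ratio of GFP to DsRed2 object intensity, acquired by 488 nm laser-scanning cytometry on HeLa lamin A-EGFP minigene reporter cells. Compound incubation 48 hrs at 37 °C in Opti-MEM with 2% FBS; DMSO 0.5% final.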

[1] = measured here: GFP splicing reporter channel
[2] = measured here: RFP viability control channel

Structure (SMILES) | AC50 [1] | AC50 [2]
COc1cc(/C=N/O)c(Br)cc1OCC(=O)Nc1ccccc1C | 20 µM [rising, single point] | 1.41 µM [rising, partial curve]
Cc1ccc(C(=O)c2cc([N+](=O)[O-])ccc2N2CCOCC2)c(C)c1 | 1.41 µM [falling, full curve, poor fit] | 1.26 µM [falling, full curve, poor fit]
Nc1nc(SCc2ccccc2Cl)[nH]c(=O)c1-c1ccccc1 |  | 8.91 µM [rising, partial curve]
CN(C)S(=O)(=O)c1ccc2c(c1)N(CC(=O)N1CCC(C(N)=O)CC1)CCS2 |  | 35.5 µM [falling, partial curve, poor fit]
CCOc1ccc(C(=O)Nc2ccc(N3CCN(C)CC3)cc2)cc1[N+](=O)[O-] | 0.00316 µM [falling, full curve, poor fit] | 
CCCCOc1ccc(-c2nnn(CCC(=O)N3CCOCC3)n2)cc1 |  | 20 µM [rising, single point]
c1ccc(CNc2ncncc2-c2ccc3c(c2)OCO3)cc1 | 20 µM [falling, single point] | 35.5 µM [falling, single point]
CCOc1ccc(NC(=O)c2cc(S(=O)(=O)N3CCC(C)CC3)cn2C)cc1 | 6.31 µM [falling, partial curve, poor fit] | 11.2 µM [falling, partial curve]
N#Cc1nc(Cc2cccc3ccccc23)oc1NCc1ccc2c(c1)OCO2 |  | 35.5 µM [rising, single point]
Cc1ccc(NC(=S)N2CCN(C(=O)c3ccccc3)CC2)c(C)c1 |  | 7.08 µM [falling, partial curve, poor fit]
O=C(COc1ccccc1F)NCc1nc2ccccc2[nH]1 |  | 0.631 µM [rising, partial curve, poor fit]
Cc1ccc(C2=NN(CCC(=O)NCCC(C)C)C(=O)CC2)cc1 |  | 0.0158 µM [rising, full curve, poor fit]
O=C(c1ccncc1)N1CCN(C2CCCCC2)CC1 | 20 µM [rising, single point] | 
CCOC(=O)N1CCN(C(=O)Cn2nc(C)c3sc4ccccc4c3c2=O)CC1 | 2 µM [rising, partial curve] | 
CCOC(=O)c1c(NC(=O)Cn2ccsc2=N)sc(C)c1C |  | 1 µM [falling, full curve, poor fit]
COc1ccc(S(=O)(=O)N2CCOC2CNC(=O)C(=O)NCCc2ccc(OC)c(OC)c2)cc1 (stereo not given) | 11.2 µM [rising, partial curve, poor fit] | 17.8 µM [rising, partial curve]
CSc1nc(NCc2ccco2)c2ccccc2n1 |  | 20 µM [falling, partial curve, poor fit]

A draw from above in order of count of non-hydrogen atoms, smallest number first.
Structure (SMILES) | AC50 [1] | AC50 [2]
Cc1ccc(NC(=S)N2CCN(C(=O)c3ccccc3)CC2)c(C)c1 |  | 7.08 µM [falling, partial curve, poor fit]
CCOC(=O)N1CCN(C(=O)Cn2nc(C)c3sc4ccccc4c3c2=O)CC1 | 2 µM [rising, partial curve] | 
COc1ccc(S(=O)(=O)N2CCOC2CNC(=O)C(=O)NCCc2ccc(OC)c(OC)c2)cc1 (stereo not given) | 11.2 µM [rising, partial curve, poor fit] | 17.8 µM [rising, partial curve]

More results:

Structure (SMILES) | AC50 [1] | AC50 [2]
CC(C)COc1ccc(-c2nnn(CC(=O)N3CCCC3)n2)cc1 |  | 31.6 µM [rising, single point]
C=CCNC(=S)Nc1ccc2nc(C)oc2c1 | 35.5 µM [rising, single point] | 
CCOC(=O)c1c(C)[nH]c(C(=O)OCc2c(C)noc2C)c1C |  | 14.1 µM [rising, single point]
COc1ccc(Nc2cc(C)nc(-n3nc(C)cc3C)n2)cc1 |  | 0.398 µM [rising, full curve]
COc1ccccc1N1CCN(CC(O)COc2cccc3ccccc23)CC1 (stereo not given) | 35.5 µM [falling, single point] and 4.47 nM [falling, full curve, poor fit] and 3.98 µM [rising, partial curve] | 891 nM [falling, single point] and 4.47 nM [falling, full curve, poor fit] and 12.6 µM [rising, partial curve]
O=C(COc1ccc(/C=N/NS(=O)(=O)c2ccccc2)cc1)Nc1cccc(Cl)c1 |  | 22.4 µM [rising, single point]
CCOc1ccc(CC(=O)NCc2ccc3c(c2)CCN3C(=O)c2ccc(F)cc2)cc1OCC |  | 12.6 µM [falling, single point]
Cc1noc(C)c1-c1nc(Nc2ccc(F)cc2)c2ccccc2n1 | 15.8 µM [falling, partial curve] | 15.8 µM [falling, partial curve]
CC(C)Oc1cccc(C(=O)C2CCCN(Cc3cnc(N4CCCC4)s3)C2)c1 (stereo not given) | 0.01 µM [falling, partial curve, poor fit] | 0.01 µM [falling, full curve, poor fit]
COc1ccc(NC(=S)N2CCN(CCN3C(=O)c4cccc5cccc(c45)C3=O)CC2)cc1 |  | 35.5 µM [falling, single point]
CCOc1ccc(C2c3[nH]c4ccccc4c3CCN2C(=O)CCC2CCCC2)cc1 (stereo not given) | 3.98 µM [falling, full curve, poor fit] | 
CCN(CCCNC(=O)CN1N=C(c2ccc(C)cc2)CCC1=O)c1ccccc1 | 11.2 µM [falling, partial curve, poor fit] | 
CCCn1nnnc1NC(=O)c1ccc2ccccc2c1 |  | 8.91 µM [rising, partial curve]
Cc1ccn2c(=O)c(NC(=O)c3cccc([N+](=O)[O-])c3C)c(C)nc2c1 | 35.5 µM [rising, single point] | 35.5 µM [rising, single point]
CC(C)(C)C(=O)Nc1nnc(CSCc2ccccc2F)s1 |  | 35.5 µM [rising, single point]
O=C(c1cc(N2C(=O)C3C4CCC(C4)C3C2=O)ccc1Cl)N1CCN(c2ccc(F)cc2)CC1 (stereo not given) | 35.5 µM [rising, single point] | 35.5 µM [rising, single point]
CN1CCC(=C2c3ccccc3CC(=O)c3sccc32)CC1 | 2 µM [falling, single point] and 35.5 µM [falling, single point] | 3.16 µM [falling, single point] and 2 nM [falling, full curve, poor fit] and 35.5 µM [rising, single point]
